Results deposited as PubChem BioAssay AID504793 (Drosophila RNAi Screening Center, 2011).
The deposit covers about 23,000 reagents; shown is an unselected part of those that have a named target and a result. In the full data, 62 (0.27%) got an active call. 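Calls come from follow-up tests whose scores are not deposited, so confirmed genes may have low counts here; counts are not normalised per plate.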 The raw values are shown without normalisation. Entries without a mark were called inactive. A plus sign joins genes that one reagent is predicted to hit.

Aim: 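Knock-downs allowing continued mitosis even though DNA is damaged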 (primary screen)
Cell system: Drosophila S2R+ cells
Knock-down reagent: long dsRNA against Drosophila genes, about 0.25 µg dsRNA per well
Duration: 4 days of dsRNA, then 4 hours of drug before read-out
Conditions: doxorubicin 0.5 µM for 4 hours to cause double-strand breaks, in cells also given a low, harmless dose of dsRNA against nbs to sensitise the assay
Measured: 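Per-well count of mitotic cells stained for phospho-histone H3 after doxorubicin exposure, used as mitotic index; counts are raw and not normalised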
Scale: mitotic cells: higher = more cells in mitosis, weaker G2 arrest
Rule for the call: 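Genes are called active only when high mitotic counts were reproduced with independent dsRNAs and mitosis was checked for delay without damage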
Meaning of the calls: active = confirmed in follow-up tests; inactive = not confirmed

Which result is listed for CG43338 [DRSC23362]?
mitotic cells, replicate 1: 4

For CG13989 [DRSC02321], what does the deposit list?
mitotic cells, replicate 1: 4

What did the screen give for CG10097 + CG10096 [DRSC14189]?
mitotic cells, replicate 1: 5

With CG10097 + CG10096 [DRSC14190], what was measured?
mitotic cells, replicate 1: 3

What did the screen give for sowah [DRSC09186]?
mitotic cells, replicate 1: 8

Which result is listed for sowah [DRSC09758]?
mitotic cells, replicate 1: 1

For CG12107 [DRSC06102], what was measured?
mitotic cells, replicate 1: 12

What did the screen give for Obp50c + Obp50b [DRSC05482]?
mitotic cells, replicate 1: 3

With CG32679 [DRSC17644], what does the deposit list?
mitotic cells, replicate 1: 11

What did the screen give for Hibch [DRSC15705]?
mitotic cells, replicate 1: 11

What is on record for Hibch [DRSC27536]?
mitotic cells, replicate 1: 2

What did the screen give for CG43322 [DRSC02280]?
mitotic cells, replicate 1: 6

What is on record for CG43322 [DRSC27089]?
mitotic cells, replicate 1: 7

What is on record for Ance [DRSC01865]?
mitotic cells, replicate 1: 5

Reprinted from the listing for reference:
CG12107 [DRSC06102]: mitotic cells, replicate 1 = 12
Obp50c + Obp50b [DRSC05482]: mitotic cells, replicate 1 = 3
